{
  "sequences": {"note": "By UniProt entry, the sequences of proteins in these tests, tags left out.", "UniProt Q96GD4, whole entry": "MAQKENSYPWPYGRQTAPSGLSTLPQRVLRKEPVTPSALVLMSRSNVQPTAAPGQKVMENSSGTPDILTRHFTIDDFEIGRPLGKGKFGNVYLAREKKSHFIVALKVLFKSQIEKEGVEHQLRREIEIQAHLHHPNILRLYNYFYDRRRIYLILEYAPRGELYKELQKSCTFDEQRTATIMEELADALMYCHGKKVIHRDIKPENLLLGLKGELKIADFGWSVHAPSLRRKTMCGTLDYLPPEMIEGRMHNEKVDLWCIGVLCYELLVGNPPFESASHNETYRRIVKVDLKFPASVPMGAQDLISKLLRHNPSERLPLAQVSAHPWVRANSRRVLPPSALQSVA"},
  "source": "patent US12188095B2",
  "about": "“Methods and compositions for identifying and treating patients with small cell lung cancer” (UNIVERSITY OF UTAH RESEARCH FOUNDATION, priority 2016, dated 2025)",
  "key": {"human SCLC cell lines": {"system": "human SCLC cell lines", "experiment": "Drug screening of human SCLC cell lines (CellTiter-Glo viability, GI50)", "type": "cell-based", "conditions": "17 human SCLC cell lines, 72-96 hr; adjusted p: etoposide 0.038, alisertib 0.001, barasertib 0.022"}, "[1]": {"system": "RPM mouse SCLC cell lines", "experiment": "Mouse cell viability and proliferation assays (CellTiter-Glo, GI50)", "type": "cell-based", "conditions": "RPM vs RPP, RP, KP cell lines, 96 hrs", "procedure": "Mouse cell viability and proliferation assays. Cells were seeded in triplicate (1500/well) in white, flat-bottom 96-well plates. […] After 96 hrs of treatment, cell viability was measured using Cell Titer Glo (CTG, Promega, Madison, Wis., USA) on a luminometer. Normalized, transformed dose response curves were generated and analyzed using GraphPad Prism (GraphPad, La Jolla, Calif., USA) to determine GI50 for each compound. […] Confluence percentage at each time point was calculated by the Essen IncuCyte software."}, "AURKB": {"biological_target": "T1, AURKB (Homo sapiens, UniProt Q96GD4)", "T1 construct": "Whole cell lysates analyzed by immunoblot for indicated antibodies; endogenous in cells; host or cells: GLC2 (human SCLC)", "experiment": "Immunoblot of Aurora kinase inhibition in treated cells", "type": "cell-based", "conditions": "concentrations in the range of the GI50-value, mouse and human cells", "procedure": "Immunoblot. For primary lung tumor lysates, mouse lung tumors were micro-dissected under sterile conditions, flash frozen and stored at −80° C. until use. Approximately 20-40 mg tumor pieces were disrupted and lysed to homogeneity with disposable pestles and cordless motor (VWR) in 200 μl RIPA buffer supplemented with protease inhibitors (Roche complete mini) and sodium orthovanadate (Sigma). Lysates are centrifuged at 13000 rpm for 15 minutes and supernatants are transferred to new tubes. For cell line lysates, total protein lysates are prepared as previously described, separated via SDS-PAGE and transferred to a PVDF membrane (Oliver et al., 2011). Membranes were blocked for 1 hr in 5% milk or 5% BSA, followed by overnight incubation with primary antibodies at 4° C. Membranes were washed for 6×5 min at room temperature in TBS-T. Mouse and rabbit HRP-conjugated secondary antibodies (Jackson ImmunoResearch, 1:10,000) were incubated for 1 hr at room temperature followed by washing 6×5 min at room temperature in TBS-T. For detection, membranes were exposed to WesternBright HRP Quantum substrate (Advansta) and detected on Hyblot CL film (Denville Scientific Inc). […]"}, "[2]": {"system": "MYC-high vs. MYC-low human SCLC cell lines", "conditions": "68 human SCLC cell lines binned by MYC expression, data of Polley et al., 2016; cited from earlier work"}},
  "note": "At least one compound was matched to its structure with a doubt left.",
  "data": [
    {"smiles": "CCN(CCCOc1ccc2c(Nc3cc(CC(=O)Nc4cccc(F)c4)n[nH]3)ncnc2c1)CCOP(=O)(O)O", "note": "[barasertib]", "values": [
      {"measurement": "drug response (GI50) of MYC-driven SCLCs versus those driven by MYCL or MYCN", "setting": "human SCLC cell lines", "value": "significantly more responsive"},
      {"measurement": "sensitivity of RPM cells compared to adenocarcinoma cell lines and non-MYC-driven cells (GI50)", "setting": "[1]", "value": "particularly sensitive"},
      {"measurement": "inhibition of AURKB", "setting": "AURKB", "value": "specific for AURKB"},
      {"measurement": "efficacy (IC50) in MYC-high versus MYC-low cell lines", "setting": "[2]", "value": "increased efficacy in MYC-high cell lines"}
    ]}
  ]
}
